Among the data in PMC10826163 are binding values, retold here.

The test concerns the target Traf2-and NcK-interacting kinase (rat (endogenous in rat hippocampus)). The experiment in a line: co-IP; rat hippocampal tissue homogenised in IP buffer with protease and phosphatase inhibitors; mouse anti-TNIK or normal mouse IgG at 4 °C overnight, protein G-agarose 3 h, five washes; Western blot with the respective antibody.

No constants are given. Whether binding was seen depends on the method and setting. Binding seen in cells or lysates may run through a third protein. Binding calls can cover weak binding; strength is not graded here.

B1: vGlut1 (protein, UniProt Q62634 1-560)
chain: MEFRQEEFRKLAGRALGRLHRLLEKRQEGAETLELSADGRPVTTHTRDPPVVDCTCFGLPRRYIIAIMSGLGFCISFGIRCNLGVAIVSMVNNSTTHRGGHVVVQKAQFNWDPETVGLIHGSFFWGYIVTQIPGGFICQKFAANRVFGFAIVATSTLNMLIPSAARVHYGCVIFVRILQGLVEGVTYPACHGIWSKWAPPLERSRLATTAFCGSYAGAVVAMPLAGVLVQYSGWSSVFYVYGSFGIFWYLFWLLVSYESPALHPSISEEERKYIEDAIGESAKLMNPVTKFNTPWRRFFTSMPVYAIIVANFCRSWTFYLLLISQPAYFEEVFGFEISKVGLVSALPHLVMTIIVPIGGQIADFLRSRHIMSTTNVRKLMNCGGFGMEATLLLVVGYSHSKGVAISFLVLAVGFSGFAISGFNVNHLDIAPRYASILMGISNGVGTLSGMVCPIIVGAMTKHKTREEWQYVFLIASLVHYGGVIFYGVFASGEKQPWAEPEEMSEEKCGFVGHDQLAGSDESEMEDEVEPPGAPPAPPPSYGATHSTVQPPRPPPPVRDY
For B1, the binding result is reported as “no binding”.

B2: CaMKIV (protein, UniProt P13234 1-474)
chain: MLKVTVPSCPSSPCSSVTSSTENLVPDYWIDGSKRDPLSDFFEVESELGRGATSIVYRCKQKGTQKPYALKVLKKTVDKKIVRTEIGVLLRLSHPNIIKLKEIFETPTEISLVLELVTGGELFDRIVEKGYYSERDAADAVKQILEAVAYLHENGIVHRDLKPENLLYATPAPDAPLKIADFGLSKIVEHQVLMKTVCGTPGYCAPEILRGCAYGPEVDMWSVGIITYILLCGFEPFYDERGDQFMFRRILNCEYYFISPWWDEVSLNAKDLVKKLIVLDPKKRLTTFQALQHPWVTGKAANFVHMDTAQKKLQEFNARRKLKAAVKAVVASSRLGSASSSHTNIQESNKASSEAQPAQDGKDKTDPLENKMQAGDHEAAKAAADETMKLQSEEVEEEEGVKEEEEEEEEEEETSRMVPQEPEDRLETDDQEMKRNSEETLKSVEEEMDPKAEEEAAAVGLGVPPQQDAILPEY
As for B2, the binding entry is “binds”.
